Positions count from the first letter of the chain named. These are yes or no findings as the source states them, for the method shown. For part of these data: In cells and extracts the contact can be indirect. Some entries that bind do so weakly or less than the wild type. For part of these data: Where a sequence is shown, tags or fusion partners need not be part of it. Each block holds one molecule with its values, some of them ahead of it.
Legend:
[1] = target: T1, human ISD11, full length, no tag (human, UniProt Q9HD34 1-91); test: crystal structure; (NIAU)2 (purified with EDTA, 3.15 Å) and (NIAU-Zn)2 (without EDTA, 3.3 Å) complexes; 0.1 M MES pH 7.0, 15% PEG-3350; both purified
T1 construct: human ISD11 (LYRM4), full length, plasmid pZM4; also called LYRM4; I of (NIA)2 and (NIAU)2; source: E. coli One Shot BL21 Star (DE3), co-expressed with NFS1, co-purified (Ni-NTA)

Amino acid sequences for entries named in this document (tags omitted). A change or cut given only in a name is not applied to a line headed by its entry. Residues count along the entry.
UniProt Q9HD34: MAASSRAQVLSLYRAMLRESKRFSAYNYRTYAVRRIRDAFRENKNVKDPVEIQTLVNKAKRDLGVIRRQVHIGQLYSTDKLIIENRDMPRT
UniProt Q9Y697, residues 56-457: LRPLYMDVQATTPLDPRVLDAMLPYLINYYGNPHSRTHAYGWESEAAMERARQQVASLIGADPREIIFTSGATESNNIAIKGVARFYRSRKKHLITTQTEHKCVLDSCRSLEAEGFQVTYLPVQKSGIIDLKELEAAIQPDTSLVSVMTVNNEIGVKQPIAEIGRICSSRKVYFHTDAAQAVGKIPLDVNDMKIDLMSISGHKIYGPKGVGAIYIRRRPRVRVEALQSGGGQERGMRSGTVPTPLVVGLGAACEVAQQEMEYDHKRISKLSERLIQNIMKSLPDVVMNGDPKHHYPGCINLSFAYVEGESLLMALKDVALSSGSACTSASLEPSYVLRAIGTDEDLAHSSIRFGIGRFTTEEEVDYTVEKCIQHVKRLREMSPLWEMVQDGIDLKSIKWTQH

[2] = target: T1, human ISD11, full length, no tag; test: crystal structure; (NIA)2 complex, 2.75 Å, space group R32; crystals from 100 mM MES pH 6.5, 0.3 M ammonium acetate, 20 mM calcium acetate, 20 mM CaCl2, 19% isopropanol, 12 °C; both purified
[3] = target: T2, S. cerevisiae Isd11-FLAG V12Q/L55Q (S. cerevisiae) (UniProt Q6Q560); test: co-IP; anti-FLAG (FLAG-M2 Sepharose) precipitation of Isd11-FLAG from lysates of mitochondria of Isd11-depleted Gal-ISD11 yeast expressing Acp1-HA; 10 mM Tris-HCl pH 7.4, 150 mM NaCl, 0.1 mM DTT, 10% glycerol, 0.2% Triton-X100, 4 °C; immunostaining
T2 sequence: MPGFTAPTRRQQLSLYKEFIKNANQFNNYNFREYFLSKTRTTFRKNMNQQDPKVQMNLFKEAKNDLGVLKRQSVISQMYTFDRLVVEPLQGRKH

[4] = target: T3, S. cerevisiae Isd11-FLAG K17F/K21F (S. cerevisiae) (UniProt Q6Q560); test: as above
T3 sequence: T2 sequence with Q12V, K17F, K21F, Q55L

[5] = target: T4, S. cerevisiae Isd11-FLAG Y34W/K38A/V68D (S. cerevisiae) (UniProt Q6Q560); test: as above
T4 sequence: T2 sequence with Q12V, Y34W, K38A, Q55L, V68D

[6] = target: T5, S. cerevisiae Isd11-FLAG, wild type (S. cerevisiae) (UniProt Q6Q560); test: as above
T5 sequence: T2 sequence with Q12V, Q55L

[7] = target: T2, S. cerevisiae Isd11-FLAG V12Q/L55Q (S. cerevisiae); test: native gel or EMSA; blue-native gel electrophoresis (7.5-20% polyacrylamide) of mitochondrial extracts; immunostaining against FLAG of Isd11-FLAG
[8] = target: T3, S. cerevisiae Isd11-FLAG K17F/K21F (S. cerevisiae); test: as above
[9] = target: T4, S. cerevisiae Isd11-FLAG Y34W/K38A/V68D (S. cerevisiae); test: as above
[10] = target: T5, S. cerevisiae Isd11-FLAG, wild type (S. cerevisiae); test: as above

- binding [1]: binds
Molecule: human NFS1 residues 56-457 without tag (from UniProt Q9Y697 56-457) (enzyme)

- binding [2]: binds
Molecule: human NFS1 residues 56-457 (Δ1-55) with N-terminal His6-tag (from UniProt Q9Y697 56-457) (enzyme)

The remaining lines, values behind:

B1: S. cerevisiae Isu1 (protein, UniProt Q03020 28-165)
chain: SSITKRLYHPKVIEHYTHPRNVGSLDKKLPNVGTGLVGAPACGDVMRLQIKVNDSTGVIEDVKFKTFGCGSAIASSSYMTELVQGMTLDDAAKIKNTEIAKELSLPPVKLHCSMLAEDAIKAAIKDYKSKRNTPTMLS
- binding [3]: binds
- binding [4]: binds
- binding [5]: binds
- binding [6]: binds

B2: S. cerevisiae Acp1-HA (protein, UniProt P32463 37-125)
chain: SANLSKDQVSQRVIDVIKAFDKNSPNIANKQISSDTQFHKDLGLDSLDTVELLVAIEEEFDIEIPDKVADELRSVGETVDYIASNPDAN
- binding [3]: binds
- binding [4]: binds
- binding [5]: binds
- binding [6]: binds

B3: S. cerevisiae Nfs1 (enzyme, UniProt P25374 37-497)
chain: PAAGVKLDDNFSLETHTDIQAAAKAQASARASASGTTPDAVVASGSTAMSHAYQENTGFGTRPIYLDMQATTPTDPRVLDTMLKFYTGLYGNPHSNTHSYGWETNTAVENARAHVAKMINADPKEIIFTSGATESNNMVLKGVPRFYKKTKKHIITTRTEHKCVLEAARAMMKEGFEVTFLNVDDQGLIDLKELEDAIRPDTCLVSVMAVNNEIGVIQPIKEIGAICRKNKIYFHTDAAQAYGKIHIDVNEMNIDLLSISSHKIYGPKGIGAIYVRRRPRVRLEPLLSGGGQERGLRSGTLAPPLVAGFGEAARLMKKEFDNDQAHIKRLSDKLVKGLLSAEHTTLNGSPDHRYPGCVNVSFAYVEGESLLMALRDIALSSGSACTSASLEPSYVLHALGKDDALAHSSIRFGIGRFSTEEEVDYVVKAVSDRVKFLRELSPLWEMVQEGIDLNSIKWSGH
- binding [3]: binds
- binding [4]: binds
- binding [5]: binds
- binding [6]: binds
- binding [7]: binds
- binding [8]: binds
- binding [9]: binds
- binding [10]: binds
